Data: PMC8898358
No constants are given. Whether binding was seen depends on the method and setting. In cells and extracts the contact can be indirect.

Target: T1, OTU domain-containing protein 1 (human (endogenous in 786-O and ACHN)) (UniProt Q5VV17)
T1 sequence: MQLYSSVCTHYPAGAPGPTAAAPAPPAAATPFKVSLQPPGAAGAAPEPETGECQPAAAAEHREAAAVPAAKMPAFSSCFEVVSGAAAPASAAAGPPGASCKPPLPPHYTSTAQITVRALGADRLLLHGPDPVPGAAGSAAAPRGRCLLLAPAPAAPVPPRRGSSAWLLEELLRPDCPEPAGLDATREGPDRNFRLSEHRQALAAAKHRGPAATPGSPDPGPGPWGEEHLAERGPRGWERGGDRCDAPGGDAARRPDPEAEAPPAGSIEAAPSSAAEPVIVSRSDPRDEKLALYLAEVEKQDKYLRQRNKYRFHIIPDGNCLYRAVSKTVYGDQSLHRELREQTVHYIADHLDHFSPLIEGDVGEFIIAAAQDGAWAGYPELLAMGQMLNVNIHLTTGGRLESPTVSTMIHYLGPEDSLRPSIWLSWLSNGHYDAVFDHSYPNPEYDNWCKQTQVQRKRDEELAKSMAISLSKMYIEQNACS
Assay: co-IP; endogenous proteins; cells lysed in RIPA buffer, protein A+G beads with IgG or a primary antibody (OTUD1 or PTEN), beads washed 6 times with RIPA buffer, Western blot; 786-O and ACHN cells

binding: no binding
Substance: AKT (human (endogenous in 786-O)) (enzyme)
